Whole data set: some 33,000 sequences, median “E-score (-0.5 to 0.5)” near -8e-05, cut for the highest 2% near 0.23. This is one part of the list.

This note sets out measurements from the supplement of paper PMC3334620.

The assay has as its target T1, Nrg2 (UniProt P38082).
T1 sequence: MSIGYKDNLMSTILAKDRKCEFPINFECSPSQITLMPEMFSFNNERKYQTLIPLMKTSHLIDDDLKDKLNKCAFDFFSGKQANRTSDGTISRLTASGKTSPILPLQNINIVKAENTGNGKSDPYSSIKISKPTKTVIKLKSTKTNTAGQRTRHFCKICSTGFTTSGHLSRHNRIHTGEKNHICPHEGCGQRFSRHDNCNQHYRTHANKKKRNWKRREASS
The experiment in a line: PBM E-score (8-mer binding enrichment) (E-score (-0.5 to 0.5)); higher = stronger / more preferred TF binding. To be noted: protein concentration: 100 nM; construct: GST-full length. The gist of the method: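 Yeast transcription factors carrying a GST tag, as full-length proteins or DNA-binding domains, were produced by PURExpress in vitro transcription/translation. About 100-200 nM protein was applied to universal all-10-mer Agilent arrays, double-stranded by primer extension on fresh or once-stripped slides. Bound protein was detected with fluorescent anti-GST, and scans were normalised with masliner. The Universal PBM Analysis Suite gave each ungapped eight-base word, pooled with its reverse complement, an E-score, a modified Wilcoxon-Mann-Whitney statistic.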
GGATGCAC: the “PBM E-score” value was -0.0861.
The value for ATTCGAAA was 0.203.
The value for AGTTGGTC was 0.0852.
The value for GGGGCCAC was -0.0958; that for CAACAGCG was -0.148; that for CGGAGGAG was -0.291.
ACGCTCGG: the “PBM E-score” value amounted to 0.0526.
The value for AACGCCCT was -0.0707.
The value for CTTAAGTC was -0.0597; that for GAGGGACC was 0.0355.
The value for CAAATCGC was -0.053; that for AAAACGAT was 0.106; that for CAAGGAGA was -0.19.
Consider ATTATACA, for which the “PBM E-score” value was -0.00719.
The value for AGCGACAT was 0.0214.
The value for CCGAACCG was -0.0765.
The value for ACCTTTAC was -0.0214; that for GGCGGTGA was -0.102.
In the case of GCAGTCGA, the “PBM E-score” value is -0.0311.
With ACGGCTAA, the “PBM E-score” value stood at 0.184.
The value for TATCAACA was 0.0479; that for CGCGCCCA was 0.129.
The value for TAACTTAA was 0.175; that for GAGACAAA was -0.091; that for CTTAATAA was 0.194.
The value for AACAGTGC was 0.0267; that for CACGAGTG was -0.114; that for GAAATAAC was 0.126.
ACAGAAAG: the “PBM E-score” value came out at 0.104.
The value for AGAGTGTC was 0.211; that for CTCAAAGA was -0.102; that for GTATAGTA was 0.0278.
The value for CAGGTCCC was 0.135; that for AGCACATG was 0.209.
The value for ATATGCAT was 0.0295; that for AGTTCAGC was -0.107.
With ATGAAGTA, the “PBM E-score” value came out at 0.0961.
The value for TAAAAATA was 0.0993; that for AATCTCGT was 0.055; that for CCTCACAA was 0.073.
The value for GAATATAC was 0.0689; that for GTCGTCAA was 0.00047; that for CGATTGGA was -0.0316.
Take ATATCTTG: the “PBM E-score” value worked out at 0.0388.
In the case of ACTATAAA, the “PBM E-score” value is 0.118.
The value for GGGCACTA was 0.00928; that for AATCGACG was 0.0662.
On to CAAGGACA, for which the “PBM E-score” value was -0.147.
The value for AACAACAG was -0.0488; that for CTGGTAGC was -0.0378; that for CATAGTCG was -0.0054.
The value for ACCGGACG was -0.0766.
The value for ACCCTCCG was -0.0767; that for AAGAATGC was 0.0568.
CGTATTGA: the “PBM E-score” value amounted to 0.0915.
The value for GTGGTAAC was -0.0324; that for AGCGCTTG was -0.00848; that for ATATGGAA was 0.0638.
For CGTCAAAA, the “PBM E-score” value is 0.144.
The value for AAAATGGA was 0.308.
The value for CTTCAAAA was 0.0401; that for CAGTCAGC was -0.0385; that for CATGTACG was 0.128.
The value for GAATCGAA was 0.0974.
ACTCAATA: the “PBM E-score” value came out at 0.119.
The value for GACCGACA was 0.0416; that for GCAATAAC was 0.0808.
The value for GCTTTATA was -0.102.
On to AATCGTAC, for which the “PBM E-score” value stood at 0.0882.
The value for AATAGGAC was 0.0448; that for ATAGTATA was 0.107; that for CAGCGTTC was 0.0488.
The value for GCATGGAA was 0.12; that for AATGTATA was 0.0937.
The value for GACCGAGC was -0.0794.
For the sequence ACTACTCT, the “PBM E-score” value came out at 0.0608.
Consider ACTGGACA, for which the “PBM E-score” value was -0.0201.
The value for ACGTGACA was -0.0483; that for AGAAACCT was -0.00411.
The value for GTCCGTCA was 0.00645; that for AGCGTCTA was -0.121.
The value for ACACCGAA was -0.0503.
As for TACAACTA, the “PBM E-score” value was 0.171.
Regarding AGCAGCAC, the “PBM E-score” value was -0.131.
Turning to ATGAAACA, the “PBM E-score” value is -0.0699.
Regarding CTGTCGTC, the “PBM E-score” value is -0.0022.
